Reference: article PMC10512297, “The Penicillium chrysogenum tom1 Gene a Major Target of Transcription Factor MAT1-1-1 Encodes a Nuclear Protein Involved in Sporulation”
Negatives hold for the conditions tested. At least one verdict rests on a figure or table, not on a statement of the authors. Protein sequences can lack the tags named with them.

Key:
[1] = target: T1, GST-MAT1-2-1 (Penicillium chrysogenum PC3) (UniProt B1GVC0); experiment: EMSA; conditions: 4 uM, without MAT1-1-1, lack of binding attributed to low protein amount (binds at 7 uM); EMSA: 20 ul reaction, 20 min at room temperature, native 4% polyacrylamide gel, 120 V 2-3 h; salt and pH not given (Ramsak et al. 2021 protocol); recombinant protein; residues 1-303; protein details: N-terminal GST; label: 32P (probe), unlabelled as competitor
T1 sequence (looked up): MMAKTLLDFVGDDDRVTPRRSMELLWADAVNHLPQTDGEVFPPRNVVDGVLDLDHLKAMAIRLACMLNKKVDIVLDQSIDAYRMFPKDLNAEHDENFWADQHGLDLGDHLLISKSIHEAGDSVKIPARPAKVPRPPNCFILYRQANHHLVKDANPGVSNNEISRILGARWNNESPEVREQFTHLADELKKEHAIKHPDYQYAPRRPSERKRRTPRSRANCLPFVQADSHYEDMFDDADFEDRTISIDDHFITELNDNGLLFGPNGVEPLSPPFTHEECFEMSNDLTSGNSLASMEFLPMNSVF

[2] = target: T2, MAT1-2-1 (GST removed) (Penicillium chrysogenum PC3) (UniProt B1GVC0); experiment: EMSA; conditions: 4 uM, without MAT1-1-1, lack of binding attributed to low protein amount; EMSA: 20 ul reaction, 20 min at room temperature, native 4% polyacrylamide gel, 120 V 2-3 h; salt and pH not given (Ramsak et al. 2021 protocol); recombinant protein; residues 1-303; label: 32P (probe), unlabelled as competitor
T2 sequence (looked up): T1 sequence (looked up)

“TCACGTGATCTCTATTGAGAACAATAGAA (double strand) [tom1-2]”: no binding [1]; no binding [2].
